Here are results for 58 compounds from PubChem BioAssay AID2685 (National Center for Advancing Translational Sciences (NCATS), 2010).

The nature of the assay: qHTS Assay for Lipid Storage Modulators in Drosophila S3 Cells.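 On cell number change: cells counted by Cell Tracker Red CMTPX staining in the red channel.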 The following applies: BODIPY lipid droplet fluorescence, 18-24 h; for cell number change: measured here: cell count max response, cells fed with added oleic acid. The gist of the method: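 Drosophila S3 cells loaded with oleic acid (400 uM, as added) and compounds at several concentrations; lipid droplets imaged by 488-nm laser-scanning cytometry, 500–530 nm intensity and object ratio to cell channel. Percent activity normalized to 20 uM Triacsin C.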

The mark [1] stands for this setting: measured here: cell number channel AC50, cells fed with added oleic acid.
[2] abbreviates: measured here: lipid fluorescence (Fed channel) AC50, cells fed with added oleic acid.

The other results are listed elsewhere or left out. Further columns of the screen follow, without active or inactive calls. The list favours compounds with an active or inconclusive main result. Potencies come from curve fits of mixed quality, noted in brackets.

Regarding `CCc1ccc2nc(N(CCN(C)C)C(=O)c3ccc4ncsc4c3)sc2c1`, the cell number change stood at 36%. Besides, the AC50 under setting [1] was 29.1 µM [rising, single point]. Also, the AC50 under setting [2] was 4.61 µM [rising, full curve].

`Cc1ccc2c(C)c(C(=O)N3CCN(c4ncccn4)CC3)oc2c1C`: the cell number change came to 7.18%.

On to `COc1ccc(NC(=O)CS(=O)CC(=O)NCC2OCCc3ccccc32)cc1` (configuration not stated), for which the cell number change is -12.5%. Besides, the AC50 under setting [2] was 0.731 µM [falling, single point].

As for `COc1ccccc1NC(=O)CCS(=O)(=O)c1ccc2c(c1)oc(=O)n2C`, the cell number change is -1.18%. Besides, the concentration at half-maximal activity (AC50) under setting [2] is 6.51 µM [falling, single point].

Regarding `CCOC(=O)N1CCN(C(=O)c2cc(Cl)c(Cl)cc2C(=O)O)CC1`, the cell number change is -48.7%. Moreover, the AC50 under setting [1] was 5.8 µM [falling, partial curve]. For the same compound, the AC50 under setting [2] is 16.4 µM [falling, partial curve].

As for `O=C(NCC1CCCCC1)c1cccnc1`, the cell number change was 23%. Also, the AC50 under setting [1] was 0.731 µM [rising, full curve, poor fit]. The AC50 under setting [2] is 0.366 µM [rising, full curve, poor fit].

For the compound `COc1cccc(-c2cc(C(F)(F)F)n3ncc(C(=O)N4CCc5ccccc5C4)c3n2)c1`, the cell number change stood at 18.8%. In addition, under setting [2], the AC50 is 0.0058 µM [rising, full curve, poor fit].

On to `COc1ccc(CN(C(=O)CSc2nnc(-c3ccccc3F)o2)c2ccc(F)cc2)cc1`, for which, under setting [2], the AC50 was 6.51 µM [rising, single point].

For `O=C(Cn1c[n+](CC(=O)c2ccc([N+](=O)[O-])cc2)cn1)c1ccc([N+](=O)[O-])cc1`, the cell number change came out at 3.26%.

On to `O=C(NCC1CCCN1S(=O)(=O)c1cccs1)C(=O)Nc1ccccc1Cl` (configuration not stated), for which the cell number change is 79.9%. Moreover, under setting [1], the AC50 was 18.4 µM [rising, single point].

`COC(=O)Cn1cccc1C(=O)c1ccccc1`: the cell number change was 4.82%.

As to `CCCNc1nc(N2CCOCC2)nc(N2CCOCC2)n1`, the cell number change amounted to 12.2%. Also, under setting [2], the AC50 was 6.51 µM [falling, single point].

`CC1CCCCC1NC(=O)NC(=O)CCl` (configuration not stated): the cell number change is -17.3%. Further, the AC50 under setting [2] was 6.51 µM [rising, single point].

Turning to `CCOC(=O)c1c(NC(=O)c2ccc(S(=O)(=O)N(C)CC3CCCO3)cc2)sc2c1CCN(C)C2` (configuration not stated), the cell number change was -9.79%. Also, the AC50 under setting [1] was 0.259 µM [falling, full curve]. Besides, the AC50 under setting [2] was 0.651 µM [falling, partial curve, poor fit].

In the case of `CCN(CC(=O)Nc1ccc(NC(C)=O)cc1)C(=O)C1CC(=O)N(CCc2ccc(OC)c(OC)c2)C1` (configuration not stated), the cell number change came out at 14.8%. Also, the half-maximal activity concentration (AC50) under setting [2] was 0.00461 µM [rising, full curve, poor fit].

Consider `CCCOc1ccc(C2C(C(=O)OC)=C(C)N=C3SCCC(=O)N32)cc1OCC` (configuration not stated), for which the cell number change is -17.3%. Also, the AC50 under setting [2] was 7.31 µM [falling, single point].

Turning to `COCCCNC(=O)/C(C#N)=C/c1c(N2CCCCCC2)nc2ccccn2c1=O`, the cell number change is -16.3%. Under setting [2], the AC50 was 18.4 µM [falling, single point].

Regarding `O=C1CCCc2nc(N3CCN(c4ccccc4)CC3)ncc21`, the cell number change is -1.12%.

In the case of `CCCCNCc1cc(Cl)c(OCCC)c(OCC)c1`, the cell number change was -74%. Also, the AC50 under setting [1] is 23.1 µM [falling, single point]. Moreover, under setting [2], the AC50 is 0.651 µM [falling, single point].

Regarding `COc1ccc(Cl)cc1C(=O)Nc1ccc(S(=O)(=O)N2CCCC2)cc1`, the cell number change turned out to be 9.57%. For the same compound, the AC50 under setting [1] is 0.517 µM [rising, partial curve].

As for `Cn1c(=O)c2c(nc(NCCc3ccccc3)n2Cc2ccc(F)cc2)n(C)c1=O`, the cell number change was -167%. The AC50 under setting [2] was 16.4 µM [falling, partial curve].

As for `COCCOC(=O)c1c(C)oc2ccc(NS(=O)(=O)c3ccc(F)cc3)cc12`, the cell number change was determined as 29.3%. For the same compound, the AC50 under setting [1] is 1.84 µM [rising, full curve, poor fit]. Also, the half-maximal activity concentration (AC50) under setting [2] was 2.06 µM [rising, partial curve].

For `Cc1ccc(OCCCN2CCOCC2)c([N+](=O)[O-])c1`, the cell number change came to 42.2%. Further, the concentration at half-maximal activity (AC50) under setting [1] was 18.4 µM [rising, single point]. For the same compound, the AC50 under setting [2] is 7.31 µM [rising, single point].

Turning to `CN(c1cccc(NC(=O)Nc2cccc(Cl)c2)c1)S(C)(=O)=O`, the cell number change is 44.1%. Besides, the AC50 under setting [1] was 32.6 µM [rising, single point]. The concentration at half-maximal activity (AC50) under setting [2] is 29.1 µM [rising, single point].

Turning to `CCC(c1nnnn1Cc1ccco1)N(CCN1CCOCC1)Cc1cc2cc(C)ccc2[nH]c1=O` (configuration not stated), the cell number change came to 0.722%. The half-maximal activity concentration (AC50) under setting [2] was 18.4 µM [rising, single point].

Turning to `CCN1CCN(c2oc(COc3ccc(-c4ccccc4)cc3)nc2C#N)CC1`, the cell number change is -18.5%.

As to `COc1cc(/C=C2/C(=N)N3C(SC)=NSC3=NC2=O)ccc1OC(=O)c1ccco1`, the cell number change is -0.451%.

As for `COCCN(C(=O)CC1CCCCC1)c1c(N)n(CC(C)C)c(=O)[nH]c1=O`, the cell number change was 10.4%.

As to `COc1ccc(S(=O)(=O)Nc2cc3c4c(oc3c3ccccc23)CCCC4=O)cc1`, the cell number change is 20.9%. Besides, under setting [2], the AC50 is 0.651 µM [rising, partial curve, poor fit].

In the case of `COc1cccc(Cn2c(=O)oc3ccccc32)c1`, the cell number change came out at 61.3%. Moreover, the AC50 under setting [1] was 20.6 µM [rising, single point].

Turning to `COc1cc2cc(C(N)=O)c(N)nc2cc1OC`, the AC50 under setting [1] was 0.58 µM [falling, single point].

For the compound `CC(=O)C(C(C)=O)c1cc(NS(=O)(=O)c2ccccc2)ccc1NS(=O)(=O)c1ccccc1`, the cell number change was found to be 14.1%.

With `O=C(COC(=O)Cn1cnc2ccccc21)Nc1cc2c(cc1Cl)C(=O)c1ccccc1C2=O`, the cell number change was -3.5%. Further, the AC50 under setting [2] is 29.1 µM [falling, single point].

`CN1C(=O)NC(c2ccc(O)cc2)C2=C1CN(c1ccc(O)cc1)C2=O` (configuration not stated): the cell number change was found to be 7.1%. Under setting [1], the AC50 is 0.411 µM [falling, full curve]. Besides, the AC50 under setting [2] is 0.461 µM [falling, full curve].

On to `COc1ccccc1Oc1nc(C)c(C(C)=O)cc1C#N`, for which the cell number change was determined as 1.9%. The half-maximal activity concentration (AC50) under setting [1] is 0.82 µM [rising, full curve, poor fit].

With `Cc1c(NC(=O)c2c(F)cccc2F)c(=O)n(-c2ccccc2)n1C`, the cell number change is -1.64%. Further, under setting [2], the AC50 is 2.59 µM [falling, full curve, poor fit].

For `COc1ccc(OC)c(C2C(C(=O)c3sc(C)nc3C)=C(O)C(=O)N2CCN2CCOCC2)c1` (configuration not stated), the cell number change turned out to be 1.1%. Besides, the AC50 under setting [2] is 0.103 µM [rising, full curve, poor fit].

Consider `Cc1ccc(C(=O)Nc2cccc3[nH]c(C(F)(F)F)nc23)cc1`, for which the cell number change was -41.3%. The half-maximal activity concentration (AC50) under setting [1] is 29.1 µM [falling, single point]. The AC50 under setting [2] was 29.1 µM [falling, single point].

Regarding `O=C(C1CCCN(c2nnc(-n3cccc3)s2)C1)N1CCN(c2ccccc2)CC1` (configuration not stated), the cell number change is -0.184%.

For `CC(C)(C)S(=O)(=O)c1ccc(S(=O)(=O)C(C)(C)C)s1`, the cell number change was found to be 1.91%. In addition, under setting [2], the concentration at half-maximal activity (AC50) is 29.1 µM [rising, single point].

For `O=C1CCN(C(=O)c2ccc(Cl)cc2)N1`, the AC50 under setting [1] is 1.03 µM [rising, full curve].

Regarding `COC(=O)c1cc(-c2ccc(OC)cc2)n[nH]1`, the cell number change is -44.3%. The AC50 under setting [1] was 0.0116 µM [falling, full curve, poor fit].

With `CCCSc1nc(C)cc(C)c1C(N)=O`, the cell number change is -2.76%.

Turning to `CC1(C)CC2(CCCN(C(=S)Nc3ccccc3)C2)CCO1` (configuration not stated), the cell number change is -2.69%. Further, the AC50 under setting [2] is 3.26 µM [rising, single point].

With `CCN(CC(=O)Nc1ccccc1C(F)(F)F)C(=O)CSCc1c(C)noc1C`, the cell number change stood at 6.11%. Also, the AC50 under setting [2] is 0.00731 µM [rising, full curve, poor fit].

For `Cc1cc(C)c(OCC(=O)N2CCN(c3ncc(C(F)(F)F)cc3Cl)CC2)c(C)c1`, the cell number change worked out at 58.8%. Besides, the AC50 under setting [1] is 14.6 µM [rising, partial curve]. Further, the AC50 under setting [2] is 14.6 µM [rising, partial curve].

On to `CCC(NC(=O)c1cc(COc2cc(C)c(Cl)c(C)c2)on1)c1ccncc1` (configuration not stated), for which the cell number change was 6.49%. In addition, under setting [1], the AC50 was 6.51 µM [rising, single point]. For the same compound, under setting [2], the AC50 is 6.51 µM [rising, partial curve, poor fit].

As to `COc1ccc(Cl)cc1N(C)C(=O)CCc1nc(-c2ccc(C)cc2)no1`, the cell number change was found to be 108%. Besides, the AC50 under setting [1] is 18.4 µM [rising, partial curve]. Besides, under setting [2], the AC50 was 16.4 µM [rising, partial curve].

For `CCN(CC)S(=O)(=O)c1ccc(CNC(=O)CN2C(=O)NC3(CCc4ccccc43)C2=O)cc1` (configuration not stated), the cell number change is -47%. For the same compound, under setting [1], the AC50 is 13 µM [falling, partial curve, poor fit].

`CC1CCC/C(=N/Nc2nc3ccccc3s2)C1` (configuration not stated): under setting [2], the AC50 was 0.116 µM [rising, single point].

In the case of `COc1cccc(Cn2nnc(C(=O)NCCc3ccc(Cl)cc3)c2N)c1`, the cell number change is -3.69%. Under setting [2], the AC50 was 3.66 µM [rising, partial curve].

For the compound `CC(CNC(=O)COc1ccccc1)OC(=O)Nc1cccc(Cl)c1` (configuration not stated), the cell number change was 18.6%. In addition, the AC50 under setting [2] was 8.2 µM [rising, single point].

With `COc1cc(C(=O)OCC(=O)Nc2ccc(F)cc2F)cc(OC)c1OC`, the cell number change was 100%. In addition, the AC50 under setting [1] was 18.4 µM [rising, partial curve]. Further, the AC50 under setting [2] is 6.51 µM [rising, single point].

On to `CCc1ccc(NC(=O)C2C3CCC(O3)C2C(=O)O)cc1` (configuration not stated), for which the cell number change is -4.05%. Moreover, the AC50 under setting [2] is 5.8 µM [falling, single point].

Take `CCOC(=O)Cn1cc(/C=C/[N+](=O)[O-])c2ccccc21`: the cell number change was -55.2%. In addition, the AC50 under setting [1] was 13 µM [falling, partial curve, poor fit]. Further, the concentration at half-maximal activity (AC50) under setting [2] is 7.31 µM [falling, partial curve].

Turning to `Cc1ccc(C(=O)N/C(=C\c2ccco2)C(=O)NCCN2CCOCC2)cc1C`, the cell number change is -1.17%. Also, the AC50 under setting [2] was 5.17 µM [falling, single point].

As to `O=C(/C=C/c1cccs1)NC(=S)NNC(=O)c1ccccc1O`, the cell number change was -1.04%. The AC50 under setting [2] was 0.82 µM [falling, full curve, poor fit].

With `O=C(COc1ccc(Cl)cc1)N(Cc1ccccc1)c1nc(-c2ccccc2)cs1`, the cell number change is -14.5%. Further, under setting [2], the AC50 was 25.9 µM [rising, single point].

A word on the AC50: it is the concentration at which the activity in the assay is half-maximal. A high value points to activity only at high concentration.
